Reference: article doi:10.1101/2025.10.22.676442
These are yes or no findings as the source states them, for the method shown. In cells and extracts the contact can be indirect. Some binding calls cover weakened binding; strength is not graded here. Where a sequence is shown, tags or fusion partners need not be part of it.

Protein sequences, listed by entry. Tags and fused reporters are not part of them.
UniProt P03496: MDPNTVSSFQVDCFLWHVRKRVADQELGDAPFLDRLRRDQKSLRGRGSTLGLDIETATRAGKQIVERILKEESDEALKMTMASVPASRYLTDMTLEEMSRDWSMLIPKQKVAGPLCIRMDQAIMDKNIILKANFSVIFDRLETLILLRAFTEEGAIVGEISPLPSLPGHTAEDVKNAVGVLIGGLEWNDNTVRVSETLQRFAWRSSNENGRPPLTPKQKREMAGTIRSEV
UniProt P03431: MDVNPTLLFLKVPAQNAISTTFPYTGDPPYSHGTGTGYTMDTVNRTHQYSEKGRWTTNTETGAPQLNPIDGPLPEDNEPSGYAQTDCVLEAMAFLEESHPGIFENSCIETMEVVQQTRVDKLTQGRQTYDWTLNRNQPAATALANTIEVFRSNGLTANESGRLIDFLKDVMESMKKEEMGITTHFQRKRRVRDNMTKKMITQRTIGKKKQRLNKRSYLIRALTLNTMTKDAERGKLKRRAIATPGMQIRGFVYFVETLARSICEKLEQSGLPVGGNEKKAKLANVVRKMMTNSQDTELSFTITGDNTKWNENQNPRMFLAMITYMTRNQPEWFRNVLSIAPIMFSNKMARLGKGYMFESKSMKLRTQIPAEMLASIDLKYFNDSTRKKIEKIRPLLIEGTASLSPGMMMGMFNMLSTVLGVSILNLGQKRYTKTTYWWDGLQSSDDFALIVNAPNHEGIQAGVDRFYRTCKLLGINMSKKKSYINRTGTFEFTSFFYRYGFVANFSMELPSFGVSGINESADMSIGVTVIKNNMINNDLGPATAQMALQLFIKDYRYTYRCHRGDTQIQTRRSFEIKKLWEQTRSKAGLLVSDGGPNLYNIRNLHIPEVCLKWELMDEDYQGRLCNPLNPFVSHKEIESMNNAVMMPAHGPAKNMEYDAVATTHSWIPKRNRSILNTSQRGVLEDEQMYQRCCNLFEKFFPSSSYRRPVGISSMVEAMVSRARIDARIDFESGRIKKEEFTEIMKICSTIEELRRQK

Tests used:
Test in all cases: co-IP
[1] = molecular target: T1, Flag-tagged UNC93B1 (in A549 cells) (UniProt Q9H1C4)
T1 sequence: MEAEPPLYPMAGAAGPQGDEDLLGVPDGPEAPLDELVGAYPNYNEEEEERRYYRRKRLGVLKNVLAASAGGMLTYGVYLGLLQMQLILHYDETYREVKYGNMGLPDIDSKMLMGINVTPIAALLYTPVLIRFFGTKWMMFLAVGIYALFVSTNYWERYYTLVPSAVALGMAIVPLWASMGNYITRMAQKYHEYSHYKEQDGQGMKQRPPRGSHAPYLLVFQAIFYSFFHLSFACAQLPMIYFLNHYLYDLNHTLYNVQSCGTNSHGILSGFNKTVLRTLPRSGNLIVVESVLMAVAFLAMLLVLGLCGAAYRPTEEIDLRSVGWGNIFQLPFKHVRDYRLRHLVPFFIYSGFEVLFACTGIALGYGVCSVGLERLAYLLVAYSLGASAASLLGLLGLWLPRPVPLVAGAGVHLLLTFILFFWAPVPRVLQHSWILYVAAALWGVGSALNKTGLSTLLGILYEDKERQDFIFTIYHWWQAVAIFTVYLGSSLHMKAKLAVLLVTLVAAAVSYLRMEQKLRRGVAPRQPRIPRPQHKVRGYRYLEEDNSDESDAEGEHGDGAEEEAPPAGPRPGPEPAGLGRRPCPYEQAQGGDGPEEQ

[2] = molecular target: Flag-tagged influenza virus NS1 (in A549 cells) (influenza A virus (strain not stated)) (UniProt P03496)
[3] = molecular target: Flag-tagged influenza virus PB1 (in A549 cells) (influenza A virus (strain not stated)) (UniProt P03431)
[4] = molecular target: Flag-tagged influenza virus NS1 (in HEK293T cells) (influenza A virus (strain not stated)) (UniProt P03496)
[5] = molecular target: Flag-tagged influenza virus PB1 (in HEK293T cells) (influenza A virus (strain not stated)) (UniProt P03431)

B1: PANK4 (endogenous, A549 cells) (protein, UniProt Q9NVE7 1-773)
chain: MAECGASGSGSSGDSLDKSITLPPDEIFRNLENAKRFAIDIGGSLTKLAYYSTVQHKVAKVRSFDHSGKDTEREHEPPYEISVQEEITARLHFIKFENTYIEACLDFIKDHLVNTETKVIQATGGGAYKFKDLIEEKLRLKVDKEDVMTCLIKGCNFVLKNIPHEAFVYQKDSDPEFRFQTNHPHIFPYLLVNIGSGVSIVKVETEDRFEWVGGSSIGGGTFWGLGALLTKTKKFDELLHLASRGQHSNVDMLVRDVYGGAHQTLGLSGNLIASSFGKSATADQEFSKEDMAKSLLHMISNDIGQLACLHARLHSLDRVYFGGFFIRGHPVTMRTITYSINFFSKGEVQALFLRHEGYLGAIGAFLKGAEQDNPNQYSWGENYAGSSGLMSASPELGPAQRARSGTFDLLEMDRLERPLVDLPLLLDPPSYVPDTVDLTDDALARKYWLTCFEEALDGVVKRAVASQPDSVDAAERAEKFRQKYWNKLQTLRQQPFAYGTLTVRSLLDTREHCLNEFNFPDPYSKVKQRENGVALRCFPGVVRSLDALGWEERQLALVKGLLAGNVFDWGAKAVSAVLESDPYFGFEEAKRKLQERPWLVDSYSEWLQRLKGPPHKCALIFADNSGIDIILGVFPFVRELLLRGTEVILACNSGPALNDVTHSESLIVAERIAGMDPVVHSALQEERLLLVQTGSSSPCLDLSRLDKGLAALVRERGADLVVIEGMGRAVHTNYHAALRCESLKLAVIKNAWLAERLGGRLFSVIFKYEVPAE
binding [1]: binds

B2: TLR7 (A549 cells) (receptor, UniProt Q9NYK1 27-1049)
chain: ARWFPKTLPCDVTLDVPKNHVIVDCTDKHLTEIPGGIPTNTTNLTLTINHIPDISPASFHRLDHLVEIDFRCNCVPIPLGSKNNMCIKRLQIKPRSFSGLTYLKSLYLDGNQLLEIPQGLPPSLQLLSLEANNIFSIRKENLTELANIEILYLGQNCYYRNPCYVSYSIEKDAFLNLTKLKVLSLKDNNVTAVPTVLPSTLTELYLYNNMIAKIQEDDFNNLNQLQILDLSGNCPRCYNAPFPCAPCKNNSPLQIPVNAFDALTELKVLRLHSNSLQHVPPRWFKNINKLQELDLSQNFLAKEIGDAKFLHFLPSLIQLDLSFNFELQVYRASMNLSQAFSSLKSLKILRIRGYVFKELKSFNLSPLHNLQNLEVLDLGTNFIKIANLSMFKQFKRLKVIDLSVNKISPSGDSSEVGFCSNARTSVESYEPQVLEQLHYFRYDKYARSCRFKNKEASFMSVNESCYKYGQTLDLSKNSIFFVKSSDFQHLSFLKCLNLSGNLISQTLNGSEFQPLAELRYLDFSNNRLDLLHSTAFEELHKLEVLDISSNSHYFQSEGITHMLNFTKNLKVLQKLMMNDNDISSSTSRTMESESLRTLEFRGNHLDVLWREGDNRYLQLFKNLLKLEELDISKNSLSFLPSGVFDGMPPNLKNLSLAKNGLKSFSWKKLQCLKNLETLDLSHNQLTTVPERLSNCSRSLKNLILKNNQIRSLTKYFLQDAFQLRYLDLSSNKIQMIQKTSFPENVLNNLKMLLLHHNRFLCTCDAVWFVWWVNHTEVTIPYLATDVTCVGPGAHKGQSVISLDLYTCELDLTNLILFSLSISVSLFLMVMMTASHLYFWDVWYIYHFCKAKIKGYQRLISPDCCYDAFIVYDTKDPAVTEWVLAELVAKLEDPREKHFNLCLEERDWLPGQPVLENLSQSIQLSKKTVFVMTDKYAKTENFKIAFYLSHQRLMDEKVDVIILIFLEKPFQKSKFLQLRKRLCGSSVLEWPTNPQAHPYFWQCLKNALATDNHVAYSQVFKETV
binding [1]: binds

B3: Myc-tagged PANK4 (in A549 cells) (protein, UniProt Q9NVE7 1-773)
chain: B1 chain
binding [2]: binds
binding [3]: binds

B4: MYC-tagged full-length PANK4 (in HEK293T cells) (protein, UniProt Q9NVE7 1-773)
chain: B1 chain
binding [4]: binds
binding [5]: binds
